{"source": "patent US4937332A", "about": "“Cephalosporin derivatives” (Taisho Pharmaceutical Co., Ltd., priority 1987, dated 1990)", "test": "in vivo", "settings": "rat, blood, 50 mg/kg in 5% gum arabic, male wister rats, bioassay", "protocol": "Three male wister rats (7 weeks old) for each group were administered orally with the test compounds, and the change of the concentration of the compound in blood was measured.\nDosage of the test compound:\n50 mg/kg (suspended in 5% gum arabic)\nQuantitative method: Bioasssay\n(test bacterium: Escherichia coil SC507)"}
{"smiles": "CC1=C(C(=O)O)N2C(=O)[C@@H](NC(=O)[C@H](N)c3ccccc3)[C@H]2SC1", "note": "[Test compound B, Cephalexin]", "values": [{"measurement": "concentration at 4 h", "setting": "Four Hours after oral administration", "result": 4780, "unit": "ng/mL"}, {"measurement": "concentration at 1 h", "setting": "One Hour after oral administration", "result": 14300, "unit": "ng/mL"}, {"measurement": "concentration at 2 h", "setting": "Two Hours after oral administration", "result": 13700, "unit": "ng/mL"}]}
